Measured values: patent US4227002A, “Halo-A-23187 derivatives” (Eli Lilly and Company, priority 1978, dated 1980)

Assay: affinity for Ca^2+ by two-phase extraction technique, aqueous phases of varying pH
Type: binding
Conditions: for relative affinities (Ca^2+ /Mg^2+) (in words): 4-bromo-A-23187 vs A-23187

SMILES | relative affinities (Ca^2+ /Mg^2+) (in words) | affinity for Ca^2+ compared with parent antibiotic (in words) (vs A-23187)
CNc1ccc2oc(CC3OC4(CCC3C)OC(C(C)C(=O)c3ccc[nH]3)C(C)CC4C)nc2c1C(=O)O (stereo not drawn) [A-23187 (free acid), reference compound] | similar | –
CNc1c(Br)cc2oc(CC3OC4(CCC3C)OC(C(C)C(=O)c3ccc[nH]3)C(C)CC4C)nc2c1C(=O)O (stereo not drawn) [4-bromo-A-23187 (free acid), 6-bromo(or chloro)-5-(methylamino)-2-[[3β,9α,-11β-trimethyl-8-[1α-methyl-2-oxo-2-(1H-pyrrol-2-yl)ethyl]-1,7-dioxaspiro[5.5]undec-2β-yl]-methyl]-4-benzoxazolecarboxylic acid] | similar | higher affinity for both cations than does the parent antibiotic
